{
  "source": "the supplement of paper PMC3334620",
  "note": "Whole data set: some 33,000 sequences, median “E-score (-0.5 to 0.5)” near -0.016, cut for the highest 2% near 0.3. This is one part of the list.",
  "data": [
    {"target": "T1, Yer184c (UniProt P39961)", "T1 sequence": "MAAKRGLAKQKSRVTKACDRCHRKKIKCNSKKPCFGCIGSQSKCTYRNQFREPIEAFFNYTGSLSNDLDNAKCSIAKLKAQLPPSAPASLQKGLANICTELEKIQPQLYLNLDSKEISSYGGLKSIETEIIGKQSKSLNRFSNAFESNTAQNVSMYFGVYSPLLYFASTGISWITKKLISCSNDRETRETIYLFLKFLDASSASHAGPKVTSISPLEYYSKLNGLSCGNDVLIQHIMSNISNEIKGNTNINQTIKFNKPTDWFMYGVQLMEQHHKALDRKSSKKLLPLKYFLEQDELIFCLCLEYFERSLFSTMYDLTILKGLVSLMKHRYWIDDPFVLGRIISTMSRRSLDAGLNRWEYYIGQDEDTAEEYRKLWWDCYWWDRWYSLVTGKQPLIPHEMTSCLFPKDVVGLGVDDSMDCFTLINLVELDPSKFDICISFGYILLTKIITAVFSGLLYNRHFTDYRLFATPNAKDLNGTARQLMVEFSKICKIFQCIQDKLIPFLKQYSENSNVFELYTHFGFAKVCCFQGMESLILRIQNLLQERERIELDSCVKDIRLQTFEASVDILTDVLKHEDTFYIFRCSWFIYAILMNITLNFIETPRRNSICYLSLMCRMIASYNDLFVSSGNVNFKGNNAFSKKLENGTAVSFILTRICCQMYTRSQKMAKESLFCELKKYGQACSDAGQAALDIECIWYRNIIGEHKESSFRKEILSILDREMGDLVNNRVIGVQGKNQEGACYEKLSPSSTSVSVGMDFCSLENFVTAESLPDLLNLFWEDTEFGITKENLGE", "test": "PBM E-score (8-mer binding enrichment) (E-score (-0.5 to 0.5)); higher = stronger / more preferred TF binding", "settings": "protein concentration: 100 nM; construct: GST-full length", "procedure,_shortened": "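The E-score, a modified Wilcoxon-Mann-Whitney statistic, was computed by the Universal PBM Analysis Suite for every ungapped eight-base word pooled with its reverse complement. Scans behind it were normalised with masliner after bound GST-tagged yeast transcription factors were detected with fluorescent anti-GST. The proteins, at about 100-200 nM, had been applied to universal all-10-mer Agilent arrays made double-stranded by primer extension.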", "values": [
      {"sequence": "TCACAGCA", "PBM E-score": 0.0456},
      {"sequence": "GTCGTGAA", "PBM E-score": -0.192},
      {"sequence": "TGCCAGCA", "PBM E-score": 0.0202},
      {"sequence": "GCGGTACC", "PBM E-score": 0.132},
      {"sequence": "AACGGCCC", "PBM E-score": -0.0656},
      {"sequence": "CCAGAAAA", "PBM E-score": 0.0329},
      {"sequence": "CTAATGAC", "PBM E-score": -0.212},
      {"sequence": "CCGTGGTA", "PBM E-score": 0.00359},
      {"sequence": "CATCATAA", "PBM E-score": 0.122},
      {"sequence": "CCGATAGA", "PBM E-score": 0.0996},
      {"sequence": "CCTTTAGA", "PBM E-score": -0.0913},
      {"sequence": "CAACAACG", "PBM E-score": 0.0241},
      {"sequence": "CAGTAAAA", "PBM E-score": 0.195},
      {"sequence": "ATCGTGAA", "PBM E-score": 0.0467},
      {"sequence": "ACGGTATC", "PBM E-score": 0.122},
      {"sequence": "TAAGAATA", "PBM E-score": -0.0312},
      {"sequence": "ATGCGTCG", "PBM E-score": -0.0754},
      {"sequence": "AGAATAAA", "PBM E-score": 0.162},
      {"sequence": "ACAGAGTG", "PBM E-score": -0.0233},
      {"sequence": "GTGCCTAA", "PBM E-score": -0.0651},
      {"sequence": "AATGATAT", "PBM E-score": 0.127},
      {"sequence": "AGGGACAT", "PBM E-score": -0.0384},
      {"sequence": "GACGGCTA", "PBM E-score": 0.0159},
      {"sequence": "GCAATAGC", "PBM E-score": -0.0393},
      {"sequence": "ATCAGTAA", "PBM E-score": 0.166},
      {"sequence": "CGCAATGA", "PBM E-score": 0.00219},
      {"sequence": "CTTCTTCA", "PBM E-score": -0.0995},
      {"sequence": "GGTCGACC", "PBM E-score": 0.17},
      {"sequence": "CATGCCCG", "PBM E-score": 0.0955},
      {"sequence": "GCAAAATA", "PBM E-score": 0.195},
      {"sequence": "AACTATCT", "PBM E-score": -0.0408},
      {"sequence": "GCAGACGC", "PBM E-score": -0.0181},
      {"sequence": "AAGGGGTC", "PBM E-score": -0.218},
      {"sequence": "GAGGTACA", "PBM E-score": -0.218},
      {"sequence": "AACTGAAT", "PBM E-score": -0.141},
      {"sequence": "GCCTCCCC", "PBM E-score": -0.256},
      {"sequence": "CTCGTCGA", "PBM E-score": -0.00306},
      {"sequence": "CTATTCGC", "PBM E-score": -0.0678},
      {"sequence": "GTAATCAA", "PBM E-score": 0.262},
      {"sequence": "AGTCCTGC", "PBM E-score": -0.0853},
      {"sequence": "CTGAGCAC", "PBM E-score": -0.117},
      {"sequence": "CCCCCTGC", "PBM E-score": -0.356},
      {"sequence": "CCGCACAG", "PBM E-score": -0.0342},
      {"sequence": "ATTCATAA", "PBM E-score": 0.156},
      {"sequence": "CGGCAAGC", "PBM E-score": 0.15},
      {"sequence": "CCCTGGCG", "PBM E-score": -0.278},
      {"sequence": "CTCGTGCC", "PBM E-score": -0.189},
      {"sequence": "AGGCAATG", "PBM E-score": -0.133},
      {"sequence": "CTGCTGGA", "PBM E-score": -0.144},
      {"sequence": "CCATGACA", "PBM E-score": -0.18},
      {"sequence": "ATAAACTC", "PBM E-score": 0.189},
      {"sequence": "ACCTATTA", "PBM E-score": -0.0673},
      {"sequence": "ACAAGCCA", "PBM E-score": -0.266},
      {"sequence": "CAGTATCG", "PBM E-score": 0.00993},
      {"sequence": "AGAGTACT", "PBM E-score": -0.151},
      {"sequence": "CGACATTC", "PBM E-score": -0.112},
      {"sequence": "CAACTTGG", "PBM E-score": -0.0503},
      {"sequence": "AGGGTGAG", "PBM E-score": -0.224},
      {"sequence": "AGGGTGAC", "PBM E-score": -0.108},
      {"sequence": "CTATATCC", "PBM E-score": -0.119},
      {"sequence": "GACCTTAA", "PBM E-score": -0.13},
      {"sequence": "ATATCCTC", "PBM E-score": 0.0493},
      {"sequence": "CTCTGGCC", "PBM E-score": -0.0594},
      {"sequence": "ATGATACG", "PBM E-score": 0.231},
      {"sequence": "GTGACCAA", "PBM E-score": -0.0261},
      {"sequence": "GACGGGAA", "PBM E-score": 0.0118},
      {"sequence": "GAAGTCCC", "PBM E-score": -0.269},
      {"sequence": "CATTTCTA", "PBM E-score": 0.175},
      {"sequence": "AGAGTTGA", "PBM E-score": 0.0152},
      {"sequence": "AGATTTCG", "PBM E-score": 0.156},
      {"sequence": "TGTACCAA", "PBM E-score": -0.0606},
      {"sequence": "ACCGGCCG", "PBM E-score": 0.413},
      {"sequence": "GAACCCAC", "PBM E-score": 0.0662},
      {"sequence": "AATCAATT", "PBM E-score": 0.227},
      {"sequence": "AGGCACTA", "PBM E-score": -0.0569},
      {"sequence": "AGGATACC", "PBM E-score": -0.0534},
      {"sequence": "ATACGTCC", "PBM E-score": -0.0599},
      {"sequence": "AGCTAGCG", "PBM E-score": -0.205},
      {"sequence": "AGTTTAGA", "PBM E-score": 0.0633},
      {"sequence": "AAACACGT", "PBM E-score": -0.0975},
      {"sequence": "CCTATAAG", "PBM E-score": -0.211},
      {"sequence": "AGGTGGAA", "PBM E-score": 0.097},
      {"sequence": "ACAGATCC", "PBM E-score": 0.204},
      {"sequence": "ACAAGTCG", "PBM E-score": -0.246},
      {"sequence": "ATTGGCTA", "PBM E-score": -0.0201},
      {"sequence": "GTAACGTA", "PBM E-score": 0.0255}
    ]}
  ]
}
